The target of the test is VEGF (UniProt P15692). The test can be described thus: BLI (Octet-QK), biotin-labeled VEGF on SA probe. In general terms: BLI is a label-free optical method that tracks binding on a fibre tip over time.

The chains behind the UniProt entries cited, without tags or fusion partners. Where a name states a change or a piece, a line headed by the entry shows the natural chain unless it says otherwise. A line that says so, or that is headed by a name, gives the form on record, which may keep a tag or linker.
VEGF (P15692, form named): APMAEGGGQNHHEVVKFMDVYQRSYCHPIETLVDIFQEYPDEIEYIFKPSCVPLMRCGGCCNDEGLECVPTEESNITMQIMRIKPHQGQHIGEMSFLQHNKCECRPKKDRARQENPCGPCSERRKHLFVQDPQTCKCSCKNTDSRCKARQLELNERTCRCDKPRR

One molecule from patent US20220073563A1 can be followed below.

These are yes or no findings as the source states them, for the method shown. Some results given as binding are weak or reduced against the parent protein; the word gives no strength.

B1: ankyrin repeat protein binding to VEGF (designed binder)
chain: GSDLDKKLLEAARAGQDDEVRILMANGADVNARDSTGWTPLHLAAPWGHPEIVEVLLKNGADVNAADFQGWTPLHLAAAVGHLEIVEVLLKYGADVNAQDKFGKTAFDISIDNGNEDLAEILQKAA
In the case of B1, the binding result is “binds”.
